Measured values: patent US12351591B2, “KRas inhibitors” (ELI LILLY AND COMPANY, priority 2022, dated 2025)
Some of these results come from one statement about several compounds together.

By UniProt entry, the sequences of proteins in these tests, tags left out. Residues count along the entry.
UniProt P01116, 1-188 isoform P01116-2 G12D: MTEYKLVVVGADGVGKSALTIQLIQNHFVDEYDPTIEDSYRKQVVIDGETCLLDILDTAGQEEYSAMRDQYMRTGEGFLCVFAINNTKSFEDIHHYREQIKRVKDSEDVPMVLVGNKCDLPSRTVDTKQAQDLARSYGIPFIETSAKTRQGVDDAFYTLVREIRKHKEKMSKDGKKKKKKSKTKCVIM

What follows are compounds tested against T1, KRas G12D (Homo sapiens, UniProt P01116, G12D) (assay: PANC-1 Cellular Active RAS GTPase ELISA (KRas G12D Mutation)). Conditions: PANC-1 cells, 2 hours; read-out: relative IC50, inhibition of constitutive RAS GTPase activity (KRas G12D mutant).
T1 construct: host or cells: PANC-1
Type: cell-based

Compound | IC50 [nM]
N#Cc1c(N)sc2c(F)cnc(-c3c4c(c5c(N6C7CCC6CN(CC[C@@H](O)CO)C7)nc(OC[C@@]67CCCN6C[C@H](F)C7)nc5c3F)COC4)c12 [Example 227, 2-Amino-4-[1-[3-[(3R)-3,4-dihydroxybutyl]-3,8-diazabicyclo[3.2.1]octan-8-yl]-5-fluoro-3-[[(2R,8S)-2-fluoro-1,2,3,5,6,7-hexahydropyrrolizin-8-yl]methoxy]-7,9-dihydrofuro[3,4-f]quinazolin-6-yl]-7-fluoro-thieno[3,2-c]pyridine-3-carbonitrile] | < 100
CCO[C@H](C)CN1CC2CCC(C1)N2c1nc(OC[C@@H]2C[C@@H](F)CN2C)nc2c(F)c(-c3ncc(F)c4sc(N)c(C#N)c34)c3c(c12)COC3 [Example 363, 2-Amino-4-[1-[3-[(2R)-2-ethoxypropyl]-3,8-diazabicyclo[3.2.1]octan-8-yl]-5-fluoro-3-[[(2S,4R)-4-fluoro-1-methyl-pyrrolidin-2-yl]methoxy]-7,9-dihydrofuro[3,4-f]quinazolin-6-yl]-7-fluoro-thieno[3,2-c]pyridine-3-carbonitrile] | < 100
COCCCN1CC2CCC(C1)N2c1nc(OC[C@@]23CCCN2C[C@@H](F)C3)nc2c(F)c(-c3ncc(F)c4sc(N)c(C#N)c34)c3c(c12)COC3 (racemic) [Example 241, 2-Amino-7-fluoro-4-[5-fluoro-3-[[(2SR,8SR)-2-fluoro-1,2,3,5,6,7-hexahydropyrrolizin-8-yl]methoxy]-1-[3-(3-methoxypropyl)-3,8-diazabicyclo[3.2.1]octan-8-yl]-7,9-dihydrofuro[3,4-f]quinazolin-6-yl]thieno[3,2-c]pyridine-3-carbonitrile] | < 100
N#Cc1c(N)sc2ccc(F)c(-c3c4c(c5c(N6C7CCC6CN(CCCO)C7)nc(OC[C@@H]6CCCN6CCF)nc5c3F)COC4)c12 (single isomer, unassigned) [Example 141] | < 100
[2H]C([2H])([2H])OCCN1CC2CCC(C1)N2c1nc(OC[C@@]23CCCN2C[C@H](F)C3)nc2c(F)c(-c3ncc(F)c4sc(N)c(C#N)c34)c3c(c12)COC3 [Example 327, 2-Amino-7-fluoro-4-[5-fluoro-3-[[(2R,8S)-2-fluoro-1,2,3,5,6,7-hexahydropyrrolizin-8-yl]methoxy]-1-[3-[2-(trideuteriomethoxy)ethyl]-3,8-diazabicyclo[3.2.1]octan-8-yl]-7,9-dihydrofuro[3,4-f]quinazolin-6-yl]thieno[3,2-c]pyridine-3-carbonitrile] | < 100
N#Cc1c(N)sc2ccc(F)c(-c3c4c(c5c(N6C7CCC6CN(CCCO)C7)nc(OC[C@H]6CCCO6)nc5c3F)COC4)c12 (single isomer, unassigned) [Example 143] | < 100
C[C@@H](O)CN1CC2CC(C1)N2c1nc(OC[C@@]23CCCN2C[C@H](F)C3)nc2c(F)c(-c3ncc(F)c4sc(N)c(C#N)c34)c3c(c12)COC3 [Example 369, 2-Amino-7-fluoro-4-[5-fluoro-3-[[(2R,8S)-2-fluoro-1,2,3,5,6,7-hexahydropyrrolizin-8-yl]methoxy]-1-[3-[(2R)-2-hydroxypropyl]-3,6-diazabicyclo[3.1.1]heptan-6-yl]-7,9-dihydrofuro[3,4-f]quinazolin-6-yl]thieno[3,2-c]pyridine-3-carbonitrile] | < 100
C[C@@H](O)CN1CC2CCC(C1)N2c1nc(OC[C@@]23CCCN2C[C@H](F)C3)nc2c(F)c(-c3nccc4sc(N)c(C#N)c34)c3c(c12)COC3 [Example 170, 2-Amino-4-[5-fluoro-3-[[(2R,8S)-2-fluoro-1,2,3,5,6,7-hexahydropyrrolizin-8-yl]methoxy]-1-[3-[(2R)-2-hydroxypropyl]-3,8-diazabicyclo[3.2.1]octan-8-yl]-7,9-dihydrofuro[3,4-f]quinazolin-6-yl]thieno[3,2-c]pyridine-3-carbonitrile] | < 100
N#Cc1c(N)sc2ccc(F)c(-c3c4c(c5c(N6C7CCC6CN(Cc6cnn(CCO)c6)C7)nc(OC[C@@]67CCCN6C[C@H](F)C7)nc5c3F)COC4)c12 [Example 110, 2-Amino-5-fluoro-4-[5-fluoro-3-[[(2R,8S)-2-fluoro-1,2,3,5,6,7-hexahydropyrrolizin-8-yl]methoxy]-1-[3-[[1-(2-hydroxyethyl)pyrazol-4-yl]methyl]-3,8-diazabicyclo[3.2.1]octan-8-yl]-7,9-dihydrofuro[3,4-f]quinazolin-6-yl]benzothiophene-3-carbonitrile] | < 100
C[C@@H](O)CN1CC2CCC(C1)N2c1nc(OC[C@@H]2C[C@H](F)CN2C)nc2c(F)c(-c3c(F)ccc4sc(N)c(C#N)c34)c3c(c12)COC3 (single isomer, unassigned) [Example 186] | < 100
N#Cc1c(N)sc2ccc(F)c(-c3c4c(c5c(N6C7CCC6CN(C[C@H](O)[C@H](O)CO)C7)nc(OC[C@@]67CCCN6C[C@H](F)C7)nc5c3F)COC4)c12 [Example 215, 2-Amino-5-fluoro-4-[5-fluoro-3-[[(2R,8S)-2-fluoro-1,2,3,5,6,7-hexahydropyrrolizin-8-yl]methoxy]-1-[3-[(2S,3R)-2,3,4-trihydroxybutyl]-3,8-diazabicyclo[3.2.1]octan-8-yl]-7,9-dihydrofuro[3,4-f]quinazolin-6-yl]benzothiophene-3-carbonitrile] | < 100
CC(=O)O.CO[C@H](C)CN1CC2CCC(C1)N2c1nc(OC[C@@H]2C[C@@H](F)CN2C)nc2c(F)c(-c3ncc(F)c4sc(N)c(C#N)c34)c3c(c12)COC3 [Example 364, 2-Amino-7-fluoro-4-[5-fluoro-3-[[(2S,4R)-4-fluoro-1-methyl-pyrrolidin-2-yl]methoxy]-1-[3-[(2R)-2-methoxypropyl]-3,8-diazabicyclo[3.2.1]octan-8-yl]-7,9-dihydrofuro[3,4-f]quinazolin-6-yl]thieno[3,2-c]pyridine-3-carbonitrile; acetic acid] | < 100
CN1CC[C@H]1COc1cc(N2C3CCC2CNC3)c2c3c(c(-c4ccc(F)c5sc(N)c(C#N)c45)c(Cl)c2n1)COC3 [Example 20, 2-Amino-4-[5-chloro-9-(3,8-diazabicyclo[3.2.1]octan-8-yl)-7-[[(2S)-1-methylazetidin-2-yl]methoxy]-1,3-dihydrofuro[3,4-f]quinolin-4-yl]-7-fluoro-benzothiophene-3-carbonitrile] | < 100
Cc1cnc(-c2c3c(c4c(N5C6CCC5CN(C[C@@H](C)O)C6)nc(OC[C@@]56CCCN5C[C@H](F)C6)nc4c2F)COC3)c2c(C#N)c(N)sc12 [Example 173, 2-Amino-4-[5-fluoro-3-[[(2R,8S)-2-fluoro-1,2,3,5,6,7-hexahydropyrrolizin-8-yl]methoxy]-1-[3-[(2R)-2-hydroxypropyl]-3,8-diazabicyclo[3.2.1]octan-8-yl]-7,9-dihydrofuro[3,4-f]quinazolin-6-yl]-7-methyl-thieno[3,2-c]pyridine-3-carbonitrile] | < 100
CCC(=O)O[C@H](C)CN1CC2CCC(C1)N2c1nc(OC[C@@]23CCCN2C[C@H](F)C3)nc2c(F)c(-c3ncc(F)c4sc(N)c(C#N)c34)c3c(c12)COC3 [Example 223, [(1R)-2-[8-[6-(2-Amino-3-cyano-7-fluoro-thieno[3,2-c]pyridin-4-yl)-5-fluoro-3-[[(2R,8S)-2-fluoro-1,2,3,5,6,7-hexahydropyrrolizin-8-yl]methoxy]-7,9-dihydrofuro[3,4-f]quinazolin-1-yl]-3,8-diazabicyclo[3.2.1]octan-3-yl]-1-methyl-ethyl] propanoate] | < 100
COC1CN(CCOc2nc(N3C4CCC3CN(CCCO)C4)c3c4c(c(-c5c(F)ccc6sc(N)c(C#N)c56)c(F)c3n2)COC4)C1 (single isomer, unassigned) [Example 217, 2-Amino-5-fluoro-4-[5-fluoro-1-[3-(3-hydroxypropyl)-3,8-diazabicyclo[3.2.1]octan-8-yl]-3-[2-(3-methoxyazetidin-1-yl)ethoxy]-7,9-dihydrofuro[3,4-f]quinazolin-6-yl]benzothiophene-3-carbonitrile] | < 100
CO[C@H](C)CN1CC2CCC(C1)N2c1nc(OC[C@@H]2CCCN2C)nc2c(F)c(-c3c(F)ccc4sc(N)c(C#N)c34)c3c(c12)COC3 (single isomer, unassigned) [Example 216] | < 100
N#Cc1c(N)sc2c(F)cnc(-c3c4c(c5c(N6C7CCC6CN(CCF)C7)nc(OC[C@@]67CCCN6C[C@H](F)C7)nc5c3F)COC4)c12 [Example 374, 2-Amino-7-fluoro-4-[5-fluoro-1-[3-(2-fluoroethyl)-3,8-diazabicyclo[3.2.1]octan-8-yl]-3-[[(2R,8S)-2-fluoro-1,2,3,5,6,7-hexahydropyrrolizin-8-yl]methoxy]-7,9-dihydrofuro[3,4-f]quinazolin-6-yl]thieno[3,2-c]pyridine-3-carbonitrile] | < 100
N#Cc1c(N)sc2cccc(-c3c4c(c5c(N6C7CCC6CN(CCCO)C7)nc(OC[C@@]67CCCN6C[C@H](F)C7)nc5c3F)COC4)c12 (single isomer, unassigned) [Example 99] | < 100
C[C@@H](O)CN1CC2CC(C1)N2c1nc(OC[C@@]23CCCN2C[C@H](F)C3)nc2c(F)c(-c3c(F)ccc4sc(N)c(C#N)c34)c3c(c12)COC3 (single isomer, unassigned) [Example 158] | < 100
Nc1nc2c(-c3c4c(c5c(N6C7CCC6CN(CCCO)C7)nc(OC[C@@]67CCCN6C[C@H](F)C7)nc5c3F)COC4)cccc2s1 [Example 28, 3-[8-[6-(2-Amino-1,3-benzothiazol-4-yl)-5-fluoro-3-[[(2R,8S)-2-fluoro-1,2,3,5,6,7-hexahydropyrrolizin-8-yl]methoxy]-7,9-dihydrofuro[3,4-f]quinazolin-1-yl]-3,8-diazabicyclo[3.2.1]octan-3-yl]propan-1-ol] | < 100
CN1C[C@H](O)C[C@H]1COc1ccc2c3c(c(-c4ccc(F)c5sc(N)c(C#N)c45)c(Cl)c2n1)COC3 (single isomer, unassigned; isomer 1) [Example 31] | < 100
CN1CCC(F)(F)C(COc2nc(N3C4CCC3CN(CCCO)C4)c3c4c(c(-c5c(F)ccc6sc(N)c(C#N)c56)c(F)c3n2)COC4)C1 (single isomer, unassigned) [Example 331, 2-Amino-4-[3-[(4,4-difluoro-1-methyl-3-piperidyl)methoxy]-5-fluoro-1-[3-(3-hydroxypropyl)-3,8-diazabicyclo[3.2.1]octan-8-yl]-7,9-dihydrofuro[3,4-f]quinazolin-6-yl]-5-fluoro-benzothiophene-3-carbonitrile] | < 100
